The supplement of paper PMC4604168 (melanoma cell lines)
The other results are listed elsewhere or left out. Many values rest on one well or one pass, so single values are uncertain.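 Cells were imaged in 1,536-well plates, and nuclei stained with an antibody against cleaved PARP were counted against all DNA-stained nuclei to give the apoptosis fraction. Screening doses were chosen to leave most cells alive, and resting and induced cleaved-PARP levels differ strongly between cell lines.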

Key:
Test in all cases: cleaved PARP positive nuclei fraction relative to DMSO control; melanoma cells; higher = more apoptosis
Conditions in all cases: library dose: low library concentration; 72 h
[1] = system: MZ2-MEL
[2] = system: MeWo
[3] = system: RPMI7951
[4] = system: RVH-421
[5] = system: SkMel28
[6] = system: SkMel2
[7] = system: SkMel30
[8] = system: SkMel5
[9] = system: UACC257
[10] = system: UACC62

Compound | cleaved PARP positive nuclei fraction [1] [%] | cleaved PARP positive nuclei fraction [2] [%] | cleaved PARP positive nuclei fraction [3] [%] | cleaved PARP positive nuclei fraction [4] [%] | cleaved PARP positive nuclei fraction [5] [%] | cleaved PARP positive nuclei fraction [6] [%] | cleaved PARP positive nuclei fraction [7] [%] | cleaved PARP positive nuclei fraction [8] [%] | cleaved PARP positive nuclei fraction [9] [%] | cleaved PARP positive nuclei fraction [10] [%]
C=CCNC1=C2C[C@@H](C)C[C@H](OC)[C@H](O)[C@@H](C)/C=C(\C)[C@H](OC(N)=O)[C@@H](OC)/C=C\C=C(/C)C(=O)NC(=CC1=O)C2=O [Tanespimycin] + CC(C)CCN1c2nc(Nc3cc(F)c(O)c(F)c3)ncc2N(C)C(=O)C1C [BID1870] (first compound 0.002 µM, partner dose 0.2 µM) | 104 | 55.4 | 63.4 | 81.7 | 112 | 114 | 94.2 | 82 | 86.3 | 168
Nc1cccc2c1CN(C1CCC(=O)NC1=O)C2=O (stereo not given) [lenalidomide] + Cc1cc(N2CCOCC2)cc2[nH]c(-c3c(NC[C@@H](O)c4cccc(Cl)c4)cc[nH]c3=O)nc12 [BMS536924] (first compound 1 µM, partner dose 0.2 µM) | 82.4 | 76.3 | 136 | 84.4 | 130 | 113 | 67.9 | 112 | 48.1 | 182
CC(=O)c1c(C)c2cnc(Nc3ccc(N4CCNCC4)cn3)nc2n(C2CCCC2)c1=O [palbociclib] + Oc1nc(-c2ccc(C(F)(F)F)cc2)nc2c1CSCC2 [XAV939] (first compound 0.04 µM, partner dose 2 µM) | 104 | 58.6 | 79.2 | 202 | 171 | 63.5 | 129 | 125 | 195 | 484
C=CCn1c(=O)c2cnc(Nc3ccc(N4CCN(C)CC4)cc3)nc2n1-c1cccc(C(C)(C)O)n1 + Cn1cncc1[C@@](N)(c1ccc(Cl)cc1)c1ccc2c(c1)c(-c1cccc(Cl)c1)cc(=O)n2C [tipifarnib] (first compound 0.02 µM, partner dose 0.01 µM) | 95.8 | 241 | 119 | 61.3 | 211 | 222 | 142 | 151 | 293 | 262
COc1cc(Nc2ncc(F)c(Nc3ccc4c(n3)NC(=O)C(C)(C)O4)n2)cc(OC)c1OC [Tamatinib] + O=C(O)c1ccc(-c2c[nH]c3ncc(-c4ccccc4)cc23)cc1C1CCCC1 [GSK650394] (first compound 0.4 µM, partner dose 0.16 µM) | 167 | 82.2 | 99 | 109 | 83.3 | 227 | 67.2 | 43.2 | 132 | 215
Cn1c(Nc2ccc(C(F)(F)F)cc2)nc2cc(Oc3ccnc(-c4ncc(C(F)(F)F)[nH]4)c3)ccc21 + NC(=O)Nc1cc(-c2cccc(F)c2)sc1C(=O)N[C@H]1CCCNC1 [AZD7762] (first compound 0.08 µM, partner dose 0.02 µM) | 84.1 | 73.1 | 205 | 66.2 | 515 | 260 | 238 | 89.5 | 376 | 668
COCC[n+]1c2c(n(Cc3cnccn3)c1C)C(=O)c1ccccc1C2=O + CN(NC(=O)CC(=O)NN(C)C(=S)c1ccccc1)C(=S)c1ccccc1 [STA4783] (first compound 0.0004 µM, partner dose 0.006 µM) | 393 | 433 | 125 | 131 | 177 | 76.1 | 89.7 | 161 | 14.3 | 66.8
C=CCn1c(=O)c2cnc(Nc3ccc(N4CCN(C)CC4)cc3)nc2n1-c1cccc(C(C)(C)O)n1 + O=C(O)c1ccc(-c2c[nH]c3ncc(-c4ccccc4)cc23)cc1C1CCCC1 [GSK650394] (first compound 0.02 µM, partner dose 0.16 µM) | 91.6 | 109 | 73 | 70.2 | 70.6 | 106 | 145 | 34.3 | 51.7 | 170
Clc1ccc(Nc2nnc(Cc3ccncc3)c3ccccc23)cc1 [vatalanib] + Cn1cc(/C=C2\C(=O)Nc3cccnc32)c2ccccc21 [GW441756] (first compound 2 µM, partner dose 0.4 µM) | 75.2 | 132 | 105 | 96.7 | 142 | 138 | 29.7 | 226 | 100 | 168
O=C(CCCCCCC(=O)Nc1ccccc1)NO [vorinostat] + CC1(C)NC(=O)N(c2ccc([N+](=O)[O-])c(C(F)(F)F)c2)C1=O [nilutamide] (first compound 0.08 µM, partner dose 1 µM) | 116 | 138 | 87.2 | 90.7 | 124 | 93.2 | 58.9 | 145 | 358 | 41.1
C=CCNC1=C2C[C@@H](C)C[C@H](OC)[C@H](O)[C@@H](C)/C=C(\C)[C@H](OC(N)=O)[C@@H](OC)/C=C\C=C(/C)C(=O)NC(=CC1=O)C2=O [Tanespimycin] + c1cc(-c2cnn3cc(-c4ccc(OCCN5CCCCC5)cc4)cnc23)ccn1 [Dorsomorphin] (first compound 0.002 µM, partner dose 0.4 µM) | 46.2 | 35.8 | 72.6 | 60.5 | 87 | 29.8 | 109 | 76.4 | 444 | 76.6
CC1(C)NC(=O)N(c2ccc([N+](=O)[O-])c(C(F)(F)F)c2)C1=O [nilutamide] + O=C(Nc1cccc(Cl)c1)Nc1ncc(CCNc2ncnc3ccsc23)s1 [SNS314] (first compound 1 µM, partner dose 0.0008 µM) | 158 | 141 | 27.5 | 88.3 | 74.5 | 96.5 | 52.4 | 68.3 | 173 | 52.8
CC1(C)NC(=O)N(c2ccc([N+](=O)[O-])c(C(F)(F)F)c2)C1=O [nilutamide] + CN(NC(=O)CC(=O)NN(C)C(=S)c1ccccc1)C(=S)c1ccccc1 [STA4783] (first compound 1 µM, partner dose 0.006 µM) | 201 | 197 | 156 | 60 | 164 | 40.9 | 138 | 37.5 | 210 | 100
CC(=O)c1c(C)c2cnc(Nc3ccc(N4CCNCC4)cn3)nc2n(C2CCCC2)c1=O [palbociclib] + CCc1ccc(CCOc2ccc(CC3SC(=O)NC3=O)cc2)nc1 [pioglitazone] (first compound 0.04 µM, partner dose 2 µM) | 106 | 80.5 | 43.1 | 272 | 149 | 90.7 | 55.7 | 209 | 106 | 169
C=CCNC1=C2C[C@@H](C)C[C@H](OC)[C@H](O)[C@@H](C)/C=C(\C)[C@H](OC(N)=O)[C@@H](OC)/C=C\C=C(/C)C(=O)NC(=CC1=O)C2=O [Tanespimycin] + C[C@@H]1CCN(C(=O)CC#N)C[C@@H]1N(C)c1ncnc2[nH]ccc12 [CP690550] (first compound 0.002 µM, partner dose 1 µM) | 92 | 79.1 | 62.6 | 144 | 102 | 93 | 80 | 95.6 | 77.5 | 47.4
NC(=O)Nc1cc(-c2cccc(F)c2)sc1C(=O)N[C@H]1CCCNC1 + NCC(=O)Nc1ccc(-n2nc(C(F)(F)F)cc2-c2ccc3c(ccc4ccccc43)c2)cc1 [OSU03012] (first compound 0.02 µM, partner dose 1 µM) | 67.5 | 360 | 168 | 71.5 | 148 | 366 | 134 | 69.3 | 112 | 131
CC(C)(C)c1cnc(CSc2cnc(NC(=O)C3CCNCC3)s2)o1 + COc1cc2c(Oc3ccc4[nH]c(C)cc4c3F)ncnc2cc1OCCCN1CCCC1 [cediranib] (first compound 0.01 µM, partner dose 0.4 µM) | 116 | 67.4 | 102 | 120 | 64.4 | 82.4 | 61.1 | 147 | 222 | 161
CO[C@@H]1[C@H](N(C)C(=O)c2ccccc2)C[C@H]2O[C@]1(C)n1c3ccccc3c3c4c(c5c6ccccc6n2c5c31)C(=O)NC4 [Midostaurin] + C[C@@H]1CCN(C(=O)CC#N)C[C@@H]1N(C)c1ncnc2[nH]ccc12 [CP690550] (first compound 0.08 µM, partner dose 1 µM) | 124 | 41.6 | 338 | 116 | 74.9 | 234 | 67.9 | 157 | 130 | 240
NC(=O)Nc1cc(-c2cccc(F)c2)sc1C(=O)N[C@H]1CCCNC1 + Cn1cncc1[C@@](N)(c1ccc(Cl)cc1)c1ccc2c(c1)c(-c1cccc(Cl)c1)cc(=O)n2C [tipifarnib] (first compound 0.02 µM, partner dose 0.01 µM) | 42.3 | 197 | 80.7 | 59.9 | 51.8 | 89.2 | 74.8 | 165 | 79.9 | 55.1
NC(=O)Nc1cc(-c2cccc(F)c2)sc1C(=O)N[C@H]1CCCNC1 + OCCn1cc(-c2cnc3nnn(Cc4ccc5ncccc5c4)c3n2)cn1 [PF04217903] (first compound 0.02 µM, partner dose 1 µM) | 72.7 | 17.3 | 74.6 | 54.6 | 21.3 | 104 | 138 | 40.4 | 31.3 | 64.2
COCC[n+]1c2c(n(Cc3cnccn3)c1C)C(=O)c1ccccc1C2=O + Cc1ccc(NC(=O)c2cccc(N(C)C)c2)cc1NC(=O)c1ccc(O)cc1 [ZM336372] (first compound 0.0004 µM, partner dose 2 µM) | 153 | 110 | 269 | 143 | 27.8 | 166 | 73.6 | 226 | 101 | 94.8

Single values from the entries so far.
Under cleaved PARP positive nuclei fraction [9] [%], CC(C)(C)c1cnc(CSc2cnc(NC(=O)C3CCNCC3)s2)o1 + COc1cc2c(Oc3ccc4[nH]c(C)cc4c3F)ncnc2cc1OCCCN1CCCC1 [cediranib] (first compound 0.01 µM, partner dose 0.4 µM) is listed with 222
Under cleaved PARP positive nuclei fraction [5] [%], Cn1c(Nc2ccc(C(F)(F)F)cc2)nc2cc(Oc3ccnc(-c4ncc(C(F)(F)F)[nH]4)c3)ccc21 + NC(=O)Nc1cc(-c2cccc(F)c2)sc1C(=O)N[C@H]1CCCNC1 [AZD7762] (first compound 0.08 µM, partner dose 0.02 µM) is listed with 515
